PubChem BioAssay AID320 (DTP/NCI, 2004)
The list does not hold the whole screen: it gathers tests that were run many times, whatever their T/C, doses with no T/C, and many T/C values between a quarter and a half above the control. Further doses and runs are listed elsewhere. T/C: endpoint of the treated group in % of that of the vehicle group. Some doses have a count of surviving animals in place of a T/C: the source holds a T/C of zero for them, seemingly a mark for toxic or unscored doses. Some survivor counts are full or nearly so, which does not show that the dose was tolerated: the source hardly ever lists a survival T/C far under the control, and the zero likely stands for such cases as well. Survivors were counted at the toxicity check, usually on the fifth day, unless a day is given; later deaths do not show. Schedule codes are those of the source, read here as Q, the interval in days (D) or hours (H), X, the number of doses. Some doses were run more than once; the values are given in rising order. For survival time, this PubChem deposit counts one and a half times the control or more as active, and values a quarter to a half above the control carry no call in these data; other NCI protocols may use other cut-offs. Some T/C values carry the count of animals alive at the toxicity check (mostly the fifth day); where none is given, no animal had died by that day. *1 amine or outer side, *2 acyl side, *3 side chain or, on linkers, in order; H or OH if unused. Where a SMILES comes first, the peptide text is derived from it. Bridges are numbered along the chain shown (N, C = ends). Roman numbers before positions name the chains, in order. [ ]: non-standard residue; d: D form. Actinocin(9to1) = Cc1c2oc3c(C)ccc(C(=O)[*:1])c3nc-2c(C(=O)[*:2])c(N)c1=O; aThr = C[C@H](O)[C@H](N)C(=O)O; NMeV = CN[C@H](C(=O)O)C(C)C; Sar = CNCC(=O)O

Tested on: BDF1 mice, P329 reticulum cell sarcoma ip, survival T/C
Experiment: NCI In Vivo Anticancer Drug Screen. Data for tumor model P329 Reticulum Cell Sarcoma (intraperitoneal) in B6D2F1 (BDF1) mice
Conditions: T/C endpoint: median survival time, higher T/C = longer survival
Experimental: The antitumor activity of compounds was measured in mice bearing transplantable tumors. Survival or tumor size were measured and the results are expressed as the measurement made in the treated group (T) divided by the measurement made in the vehicle treated control group (C). The tumor model used in this assay is P329 Reticulum Cell Sarcoma (intraperitoneal) in B6D2F1 (BDF1) mice

[1] = dose: 50.0 mg/kg/injection, schedule: Q01DX010 (ip), vehicle: saline
[2] = dose: 100.0 mg/kg/injection, schedule: Q01DX010 (ip), vehicle: saline
[3] = dose: 100.0 mg/kg/injection, schedule: Q01DX010 (sc), vehicle: steroid suspending solution
[4] = dose: 2.5 mg/kg/injection, schedule: Q01DX010 (ip), vehicle: saline
[5] = dose: 20.0 mg/kg/injection, schedule: Q01DX010 (ip), vehicle: saline
[6] = dose: 200.0 mg/kg/injection, schedule: Q01DX010 (ip), vehicle: saline
[7] = dose: 25.0 mg/kg/injection, schedule: Q01DX010 (ip), vehicle: saline
[8] = dose: 3.13 mg/kg/injection, schedule: Q01DX010 (ip), vehicle: saline
[9] = dose: 5.0 mg/kg/injection, schedule: Q01DX010 (ip), vehicle: saline
[10] = dose: 10.0 mg/kg/injection, schedule: Q01DX010 (ip), vehicle: saline

CS(=O)(=O)OCCC(=O)N1CCN(C(=O)CCOS(C)(=O)=O)CC1
T/C [1]: 125 % of control
T/C [2]: 146 % of control

CC(CCC(C)OS(C)(=O)=O)OS(C)(=O)=O (stereo not drawn)
survivor count (dose: 16.0 mg/kg/injection, schedule: Q01DX010 (ip), vehicle: saline): 6 of 6

Nc1nc(=S)c2ncn(C3OC(CO)C(O)C3O)c2[nH]1 (stereo not drawn)
T/C (dose: 2.0 mg/kg/injection, schedule: Q01DX010 (ip), vehicle: saline): 143 % of control
survivor count (dose: 8.0 mg/kg/injection, schedule: Q01DX010 (ip), vehicle: saline): 6 of 6

COc1ccc2c(c1OC)C(=O)O[C@@H]2[C@H]1c2c(cc3c(c2OC)OCO3)CCN1C
survivor count (dose: 7.8 mg/kg/injection, schedule: Q01DX010 (ip), vehicle: saline): 6 of 6
survivor count (dose: 15.6 mg/kg/injection, schedule: Q01DX010 (ip), vehicle: saline): 6 of 6
survivor count (dose: 31.3 mg/kg/injection, schedule: Q01DX010 (ip), vehicle: saline): 5 of 6

CC(=O)O[C@]1(C(C)=O)CC[C@H]2[C@@H]3C[C@H](C)C4=CC(=O)C=C[C@]4(C)[C@@]3(F)[C@@H](O)C[C@@]21C
survivor count [3]: 6 of 6

Nc1nc2n[nH]nc2c(=O)[nH]1
survivor count (dose: 25.0 mg/kg/injection, schedule: Q01DX010 (ip), vehicle: alkali diluted with saline): 1 of 6
T/C (dose: 50.0 mg/kg/injection, schedule: Q01DX010 (ip), vehicle: alkali diluted with saline): 138 and 142 % of control

O=P1(N(CCCl)CCCl)NCCCO1 (stereo not drawn)
survivor count (dose: 22.5 mg/kg/injection, schedule: Q01DX010 (ip), vehicle: saline): 6 of 6
survivor count (dose: 45.0 mg/kg/injection, schedule: Q01DX010 (ip), vehicle: saline): 6 of 6
survivor count (dose: 90.0 mg/kg/injection, schedule: Q01DX010 (ip), vehicle: saline): 6 of 6
survivor count (dose: 180.0 mg/kg/injection, schedule: Q01DX010 (ip), vehicle: saline): 6 of 6

Cc1c2oc3c(C)ccc(C(=O)N[C@@H]4C(=O)N[C@H](C(C)C)C(=O)N5CCC[C@H]5C(=O)N(C)CC(=O)N(C)[C@@H](C(C)C)C(=O)O[C@H]4C)c3nc-2c(C(=O)N[C@@H]2C(=O)N[C@H](C(C)C)C(=O)N3CCC[C@H]3C(=O)N(C)CC(=O)N(C)[C@@H](C(C)C)C(=O)O[C@H]2C)c(N)c1=O (I: [aThr][dV]P[Sar][NMeV] / II: [aThr][dV]P[Sar][NMeV]; ester I:1-I:C, II:1-II:C; linker I:N-II:N via Actinocin(9to1))
T/C (dose: 25.0 micrograms/kg/injection, schedule: Q01DX010 (ip), vehicle: other): 126 and 137 % of control
T/C (dose: 50.0 micrograms/kg/injection, schedule: Q01DX010 (ip), vehicle: other): 142 % of control
survivor count (dose: 100.0 micrograms/kg/injection, schedule: Q01DX010 (ip), vehicle: other): 6 of 6

NC(Cc1ccc(N(CCCl)CCCl)cc1)C(=O)O (stereo not drawn)
T/C [4]: 142 % of control
survivor count [5]: 5 of 6

CCN(CC)CCNc1ccc(C)c2sc3ccccc3c(=O)c12
T/C [1]: 128 [5 of 6 alive] and 134 % of control
survivor count [2]: 6 of 6
survivor count [6]: 4 of 6 and 6 of 6

CN(C)/N=N/c1nc[nH]c1C(N)=O
T/C [7]: 138 % of control
T/C [1]: 125 and 138 % of control
T/C [2]: 135 % of control

O=C(O)CCCc1ccc(N(CCCl)CCCl)cc1
survivor count [7]: 0 of 6

C1CN1c1nc(N2CC2)nc(N2CC2)n1
T/C (dose: 0.25 mg/kg/injection, schedule: Q01DX010 (ip), vehicle: saline): 125 % of control
T/C (dose: 0.5 mg/kg/injection, schedule: Q01DX010 (ip), vehicle: saline): 146 % of control
survivor count (dose: 1.0 mg/kg/injection, schedule: Q01DX010 (ip), vehicle: saline): 6 of 6

C[C@]12C=CC(=O)C=C1CC[C@@H]1[C@@H]2C(=O)C[C@@]2(C)[C@H]1CC[C@]2(O)C(=O)CO
survivor count (dose: 25.0 mg/kg/injection, schedule: Q01DX010 (sc), vehicle: steroid suspending solution): 6 of 6
survivor count (dose: 50.0 mg/kg/injection, schedule: Q01DX010 (sc), vehicle: steroid suspending solution): 6 of 6
survivor count [3]: 6 of 6
survivor count (dose: 200.0 mg/kg/injection, schedule: Q01DX010 (sc), vehicle: steroid suspending solution): 5 of 6 and 6 of 6

S=P(N1CC1)(N1CC1)N1CC1
T/C (dose: 3.0 mg/kg/injection, schedule: Q01DX010 (ip), vehicle: saline): 126 and 130 % of control

S=c1nc[nH]c2nc[nH]c12
T/C (dose: 5.0 mg/kg/injection, schedule: Q01DX010 (ip), vehicle: alkali diluted with saline): 131 and 138 % of control
T/C (dose: 10.0 mg/kg/injection, schedule: Q01DX010 (ip), vehicle: alkali diluted with saline): 131 and 146 % of control
T/C (dose: 20.0 mg/kg/injection, schedule: Q01DX010 (ip), vehicle: alkali diluted with saline): 148 % of control
T/C (dose: 40.0 mg/kg/injection, schedule: Q01DX010 (ip), vehicle: alkali diluted with saline): 145 and 147 % of control
T/C (dose: 80.0 mg/kg/injection, schedule: Q01DX010 (ip), vehicle: alkali diluted with saline): 127 % of control

N=[N+]=CC(=O)OCC(N)C(=O)O (stereo not drawn)
T/C [8]: 138 and 145 % of control

N#[N+]c1cnc([O-])[nH]c1=O
T/C [4]: 137 % of control
T/C [9]: 140 % of control
T/C [10]: 137 % of control
survivor count [5]: 0 of 6

COS(C)(=O)=O
survivor count [2]: 6 of 6

O=NN(CCCl)C(=O)NCCCl
T/C [8]: 146 % of control
T/C (dose: 12.5 mg/kg/injection, schedule: Q01DX010 (ip), vehicle: saline): 129 % of control
survivor count [7]: 5 of 6 and 6 of 6

Nc1nc(SCc2ccccc2)c2[nH]cnc2n1
T/C (dose: 32.0 mg/kg/injection, schedule: Q01DX010 (ip), vehicle: saline): 128 % of control
survivor count (dose: 64.0 mg/kg/injection, schedule: Q01DX010 (ip), vehicle: saline): 6 of 6

Cn1cnc([N+](=O)[O-])c1Sc1nc(N)nc2nc[nH]c12
T/C [9]: 139 % of control
survivor count [5]: 6 of 6

CCCSc1ncnc2nc[nH]c12
T/C (dose: 62.5 mg/kg/injection, schedule: Q01DX010 (ip), vehicle: saline): 134 % of control
survivor count (dose: 125.0 mg/kg/injection, schedule: Q01DX010 (ip), vehicle: saline): 6 of 6
survivor count (dose: 250.0 mg/kg/injection, schedule: Q01DX010 (ip), vehicle: saline): 6 of 6

N=C(N)SCc1c2ccccc2c(CSC(=N)N)c2ccccc12
T/C [9]: 139 % of control
T/C [10]: 135 % of control
T/C [5]: 132 % of control
T/C (dose: 40.0 mg/kg/injection, schedule: Q01DX010 (ip), vehicle: saline): 125 % of control

CC(=O)Nc1ccc2nc3ccc(NC(C)=O)cc3[n+](-c3ccccc3)c2c1
T/C [2]: 128 % of control
T/C [6]: 142 % of control

CSc1ncnc2nc[nH]c12
T/C [2]: 126 and 138 % of control
